Measured values from PubChem BioAssay AID2718 (Broad Institute, 2010).
Among all 320,000 compounds or so, about 480 (0.15%) were called active. Inconclusive means that the source gave no clear call. Such entries were picked first, then a sample of the others. No stated cut-off is given here; in the data, active means inhibition above about 26% (passing the limit was not always enough); inconclusive means no clear call, values can overlap the other calls.

By UniProt entry, the sequences of proteins in these tests, tags left out.
UniProt O15379, whole entry, looked up: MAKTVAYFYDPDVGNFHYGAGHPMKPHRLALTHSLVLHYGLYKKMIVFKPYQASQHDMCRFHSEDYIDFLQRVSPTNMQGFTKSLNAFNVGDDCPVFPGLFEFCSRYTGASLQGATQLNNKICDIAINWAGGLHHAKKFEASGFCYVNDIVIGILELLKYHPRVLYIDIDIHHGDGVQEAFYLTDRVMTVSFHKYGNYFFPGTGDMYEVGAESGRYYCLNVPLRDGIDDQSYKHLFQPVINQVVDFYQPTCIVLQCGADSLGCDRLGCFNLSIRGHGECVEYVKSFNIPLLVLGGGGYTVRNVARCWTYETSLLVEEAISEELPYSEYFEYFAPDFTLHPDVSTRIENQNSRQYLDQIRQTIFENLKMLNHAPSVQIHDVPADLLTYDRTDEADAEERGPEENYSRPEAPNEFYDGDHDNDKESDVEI

Target: Histone deacetylase 3 (Homo sapiens) (UniProt O15379)
Assay: HDAC3 deacetylase inhibitors, primary screen, biochemical, fluorescence, cell-free homogeneous (AID 2718)
Settings: recombinant HDAC3, fluorogenic peptide/trypsin coupled, at 8.3 µM, hits give high values

Structure (SMILES) | inhibition
CC(=O)Nc1ccccc1OCC(=O)c1ccc2c(c1)OCO2 | inconclusive: 19%
CCOC(=O)C1CCCN(C(=O)c2ccc3c(=O)n(CCOC)c(=S)[nH]c3c2)C1 (stereo not drawn) | inconclusive: 31.4%
CCCOC(=O)c1ccc(OC(=O)c2ccco2)cc1 | active: 32.9%
CSc1ccccc1NC(=O)COc1ccccc1Cl | inconclusive: 16.1%
COc1ccc(C(=O)N2CCCC(Nc3ccc(C(C)C)cc3)C2)c(OC)n1 (stereo not drawn) | inactive: 11.5%
CCN(CC)CCCNC(=S)N(Cc1cccnc1)Cc1cc2cccc(C)c2[nH]c1=O | inconclusive: 31.1%
Cc1ccc(NC(=O)/C=C/c2ccc([N+](=O)[O-])s2)cc1 | inconclusive: 16.5%
CC(C)(C)OC(=O)NCCCC[C@H](NC(=O)c1[nH]cnc1C(=O)N[C@@H](Cc1ccccc1)C(=O)OCc1ccccc1)C(=O)OC(C)(C)C | active: 38.3%
CC(=O)c1ccc(N2C(=NC(=O)C(C)C)SC3CS(=O)(=O)CC32)cc1 (stereo not drawn) | inconclusive: 18.8%
c1ccc(-c2c[n+]3c(n2-c2ccccc2)SCC3)cc1 | inactive: 6.34%
CCn1ncc(/C=N\NC(=O)c2ccc3c(c2)c(C)c(C)n3Cc2ccccc2)c1C | inconclusive: 15.2%
CC1CCCCC1NC(=O)CCNS(=O)(=O)c1ccc(Cl)cc1 (stereo not drawn) | inconclusive: 19.7%
COc1cccc(CC2(CO)CCCN(Cc3cn[nH]c3-c3ccccc3)C2)c1 (stereo not drawn) | inactive: -5.11%
Cc1ccc(NC(=O)CC(=O)Nc2ccc(C)c(C)c2)cc1C | inconclusive: 22.7%
Cc1ccc(-n2nc3c(N4CCC(C(=O)NCc5ccccc5C)CC4)nnc(C)c3c2C)cc1 | inactive: 0.751%
COC(=O)c1ccc(COc2ccccc2/C=N/NS(=O)(=O)c2ccc(C)cc2)cc1 | inactive: 4.95%
CCn1c(N)c(C(=O)NC)sc1=S | inactive: 11.7%
Cc1cccc(OCc2ccc(C(=O)N3CCOCC3)o2)c1 | inconclusive: 13.7%
COc1ccccc1C1/C(=C(/O)c2ccc(OC(C)C)cc2)C(=O)C(=O)N1c1cc(C)on1 (stereo not drawn) | inconclusive: 32.8%
COC(=O)c1ccc2c(=O)n(CC3CCCO3)c(=S)[nH]c2c1 (stereo not drawn) | inconclusive: 15.5%
Cc1ccc(/C=C/C(=O)NCC2COc3ccccc3O2)o1 (stereo not drawn) | inconclusive: 24%
O=C1CCN(Cc2ccccc2)C=C1c1ccc(C(F)(F)F)cc1 | inconclusive: 22.1%

Structure (SMILES) | inhibition
Cc1ccc(S(=O)(=O)Nc2ccc3c(c2)C(=O)N([C@H](C)CO)C[C@H](C)[C@@H](CN(C)Cc2ccc(-c4ccccc4)cc2)O3)cc1 | inconclusive: 23.8%
O=C(CCC1CCCCC1=O)c1ccccc1 (stereo not drawn) | inactive: -7.93%
CCOc1ccc(-c2nc(CSCC(=O)N3CCN(C(=O)c4ccco4)CC3)c(C)o2)cc1 | inactive: 1.7%
O=c1c([N+](=O)[O-])c(O)c2ccccc2n1Cc1ccccc1 | inactive: -0.415%
CCC(=O)Nc1nc(C)c(-c2csc(Nc3cccc(O)c3)n2)s1 | inconclusive: 23.2%
CCCc1nc(NCc2ccncc2)c2nnn(Cc3ccccc3F)c2n1 | inactive: 2.85%
Cc1ccsc1/C=N/N1CCN(c2ccccn2)CC1 | inactive: 2.94%
Cc1cccc(C)c1OCc1nnc(SCC(=O)Nc2nccs2)o1 | inactive: -5.15%
CC(=O)[C@@H]1[C@@H]2C(=O)N(C3CCCCC3)C(=O)[C@@H]2C2c3ccccc3C=CN21 (stereo partly drawn) | inactive: 2.54%
COC(=O)c1cccc(NC(=S)N2CCOCC2)c1 | inconclusive: 19.3%
O=C(CCN1CCCCCC1)c1ccccc1 | inactive: -0.71%
C=CC[C@H](CC(=O)N(CCO)Cc1ccccc1)C(=O)N[C@H](COC(=O)[C@@H](CC=C)Cc1ccc(F)cc1)Cc1ccccc1 | active: 33.2%
COc1ccc(C(=O)Nc2ccc3c(c2)C(=O)c2ccccc2C3=O)cc1OC | inactive: -0.066%
O=C(CSc1nnc(-c2ccc(O)cc2)n1Cc1ccco1)c1ccccc1 | inactive: -5.19%
CCc1nn(C(CC)C(=O)NCc2cccc(OC)c2)c(=O)c2cc3occc3n12 (stereo not drawn) | inconclusive: 19.7%
Cc1cc(C(=O)NC2CCCc3c2cnn3-c2ccc(C)c(C)c2)no1 (stereo not drawn) | inactive: 9.16%
CC1(C)Cc2c(sc3nc(=S)[nH]c(N)c23)CO1 | inactive: -4.69%
COc1ccc(S(=O)(=O)Cc2ccc(C(=O)NCc3ccccc3)o2)cc1 | inconclusive: 21.5%
COc1cc(/C=C/C(=O)c2c(O)ccc3c(C)cc(=O)oc23)ccc1O | inactive: 13%
Cc1ccc(NC(=O)C2(NC(=O)c3cccc(N4C(=O)CSC4c4ccccc4)c3)CCCCC2)cc1 (stereo not drawn) | inconclusive: 13.1%
Cc1ccc(C2=NS(=O)(=O)N(C)C(C(=O)NC(C)c3ccccc3)=C2)cc1 (stereo not drawn) | inconclusive: 31.7%
COc1ccc(OC)c(C2CC(=O)N3CN(c4cccc(Cl)c4C)CSC3=C2C#N)c1 (stereo not drawn) | active: 36.8%

An excerpt of the results above, for reference:
Structure (SMILES) | inhibition
CCc1nn(C(CC)C(=O)NCc2cccc(OC)c2)c(=O)c2cc3occc3n12 (stereo not drawn) | inconclusive: 19.7%
Cc1cc(C(=O)NC2CCCc3c2cnn3-c2ccc(C)c(C)c2)no1 (stereo not drawn) | inactive: 9.16%
CC1(C)Cc2c(sc3nc(=S)[nH]c(N)c23)CO1 | inactive: -4.69%
COc1ccc(S(=O)(=O)Cc2ccc(C(=O)NCc3ccccc3)o2)cc1 | inconclusive: 21.5%
COc1cc(/C=C/C(=O)c2c(O)ccc3c(C)cc(=O)oc23)ccc1O | inactive: 13%
Cc1ccc(NC(=O)C2(NC(=O)c3cccc(N4C(=O)CSC4c4ccccc4)c3)CCCCC2)cc1 (stereo not drawn) | inconclusive: 13.1%

The results go on:

Structure (SMILES) | inhibition
Cc1cccc(NC(=S)N(Cc2cccc(Br)c2)CC2CCC(C(=O)O)CC2)c1 (stereo not drawn) | inconclusive: 18.9%
COc1cccc(Nc2ccc(Nc3cccc(OC)c3)nn2)c1 | inactive: 2.71%
O=C1c2ccccc2CSc2c(O)cccc21 | inconclusive: 10%
COc1ccc(N=Cc2sc3ccccc3c2Cl)cc1 | inactive: -0.222%
CC1(C)Cc2c(C#N)c(N)n(-c3ccccc3)c(=O)c2CO1 | inconclusive: 16.3%
Cc1ccc(NC(=O)C2CCC(C(C)(C)C)CC2)cc1S(=O)(=O)N1CCOCC1 (stereo not drawn) | inconclusive: 23.6%
CCOC(=O)N1CCN(C(=O)c2ccccc2CCc2ccccc2)CC1 | inactive: 3.95%
CN1CCN(c2ccc(NC(=O)c3ccc(-c4ccc(Br)cc4)o3)cc2)CC1 | inconclusive: 17.2%
CCOC(=O)N1CCN(c2cc(=O)n(C3CCCCC3)c(=O)[nH]2)CC1 | inactive: 0.863%
CN(C)C(=O)CCc1nc(-c2ccc(C(C)(C)C)cc2)no1 | inconclusive: 21%
COc1ccc(Cl)cc1NC(=O)CN(C)C(=O)Cc1n[nH]c(=O)c2ccccc12 | inconclusive: 13.8%
COc1ccccc1Cn1c(=O)[nH]c2cccnc21 | inconclusive: 17.3%
C/C(=N\N=C1\NC(=O)C(CC(=O)Nc2ccc(C)c(Cl)c2)S1)C(C)(C)C (stereo not drawn) | inconclusive: 21.4%
CCN(CCCNC(=O)CCNC(=O)Cn1cnc2ccccc2c1=O)c1cccc(C)c1 | inactive: 1.07%
COc1cccc(N2CCN(C(=O)C3CCCN(S(=O)(=O)c4cnc[nH]4)C3)CC2)c1 (stereo not drawn) | inconclusive: 11.9%
O=C(COc1ccc2ccc(=O)oc2c1)NC1CCN(Cc2ccccc2)CC1 | inconclusive: 12%
CCCCc1nnc(NC(=O)CSc2nc(=O)cc(N)n2-c2cccc(C)c2)s1 | inconclusive: 16.8%
O=C(CSc1nc(=O)n(CCCN2CCOCC2)c2c1CCCC2)Nc1cccc(Cl)c1 | inconclusive: 18%
COc1ccc2nc3sc(C(=O)NCc4cccs4)c(N)c3cc2c1 | inconclusive: 14.9%
Cc1[nH]c(=S)c(C#N)c(-c2ccco2)c1C(=O)N(C)C | inactive: 9.1%
O=C(Nc1ccc(S(=O)(=O)Nc2cnc3ccccc3n2)cc1)c1cc(F)c(F)cc1Cl | inactive: -3.59%
CCc1ccc(S(=O)(=O)Nc2ccc(Br)cn2)cc1 | inconclusive: 20.8%

Structure (SMILES) | inhibition
COc1ccc(C2CC(O)(c3ccccc3)Oc3cc(OC)c(OC)c(OC)c32)cc1 (stereo not drawn) | active: 40.8%
CSCC[C@H](NC(=O)CC(C)(C)C)c1nc2ccccc2[nH]1 | inactive: -4.6%
O=C1Cc2ccccc2Sc2cc(OCCCN3CCCCC3)ccc21 | inactive: -2.81%
CCn1c(CNC(=O)c2cccc(C)c2)nnc1SCC(=O)N1CCOCC1 | inactive: 1.62%
CCc1cccc(CC)c1NC(=S)NCCc1ccc(O)c(O)c1 | inconclusive: 15.8%
COC(=O)C1=C(C(=O)OC)SC(=C2C(=S)C(C)(C)N(C(=O)CC(C)C)c3ccccc32)S1 | inconclusive: 18%
CC1=NN(c2nc(-c3ccc(C#N)cc3)cs2)C(=O)C1 | inconclusive: 17.7%
CCN(CC(=O)Nc1c(F)cccc1F)C(=O)c1ccc(C2SCCS2)cc1 | active: 62.3%
CCOC(=O)c1sc(NC(=O)C(C)Sc2nc(N)cc(=O)[nH]2)nc1C (stereo not drawn) | inconclusive: 20.9%
CCc1ccc(/C=C2\SC(=S)N(CCCC(=O)Nc3ccccc3C(=O)O)C2=O)cc1 | inconclusive: 19.5%
COc1cc(/C=N/Nc2nc(N3CCCC3)nc(N3CCCC3)n2)ccc1O | active: 37.8%
O=C(Cc1cccs1)Nc1nnc(-c2ccccc2)s1 | inconclusive: 15.7%
COc1ccc(CSc2nnc(C)n2N)cc1Br | inconclusive: 24.7%
Cc1ccccc1NC(=O)/C(C#N)=C\c1ccsc1 | inconclusive: 21.8%
CSc1nc2cc(Oc3cccc(Cl)c3Cl)c(Cl)cc2[nH]1 | active: 29%
CCc1cccc(CC)c1NC(=S)NCCc1c(C)[nH]c2ccc(C)cc12 | inconclusive: 25.1%
O=C1CCN(S(=O)(=O)c2ccccc2)CCN1CCOCc1ccccc1 | inconclusive: 21.1%
CCN(CC)CCCNc1cc(C)nc2cc(-c3cccs3)nn12 | inactive: -9.23%
C=CCNC(=S)Nc1ccc(C(N)=O)cc1 | inconclusive: 17.3%
COc1cc(OC)c(C2CC(=O)N3CN(C)CSC3=C2C#N)cc1OC (stereo not drawn) | active: 30.5%
O=C(NCC(c1ccco1)N1CCCC1)c1cccc(S(=O)(=O)N2CCOCC2)c1 (stereo not drawn) | inconclusive: 30.1%
Cc1cc2nc(SCCOC(=O)Nc3ccc(Cl)cc3)nc(C)c2cc1C | inconclusive: 20.3%
